Source: the supplement of paper PMC8256030
Values joined by “and” are separate entries in the source; they are usually repeats but may differ in a detail not shown here. Equal values may be shown once. The list shows a part of the results. Single values are uncertain here, since repeats match poorly.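 HEK293T cells were given each compound shortly before transfection with a reporter in which red mCherry is followed by the SARS-CoV-2 frameshift element and then GFP in the −1 frame, so GFP appears only after frameshifting.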

Each compound was assayed on SARS-CoV-2 -1 PRF reporter mCherry-FSE-GFP(-1) (assay: percent effect, decrease of GFP/mCherry ratio (-1 PRF reporter) relative to controls; higher = stronger frameshift inhibition). Details: 10 µM; 24 h; HEK293T.

| Compound | percent effect |
| --- | --- |
| CC[C@H]1OC(=O)[C@H](C)[C@@H](O[C@H]2C[C@@](C)(OC)[C@@H](O)[C@H](C)O2)[C@H](C)[C@@H](O[C@@H]2O[C@H](C)C[C@H](N(C)C)[C@H]2O)[C@](C)(O)C[C@@H](C)[C@@H]2N[C@@H](COCCOC)O[C@H]([C@H]2C)[C@]1(C)O [dirithromycin] | -4.04% and -0.0626% and -7.35% |
| COCCOc1cnc(NS(=O)(=O)c2ccccc2)nc1 [glymidine] | -1.19% |
| CN1CC[C@H](c2c(O)cc(O)c3c(=O)cc(-c4ccccc4Cl)oc23)[C@H](O)C1 [alvocidib] | -3.53% |
| CN[C@@H]1[C@H](O)[C@H](NC)[C@H]2O[C@@]3(O)C(=O)C[C@@H](C)O[C@H]3O[C@@H]2[C@H]1O [spectinomycin] | -2.5% |
| CCc1nn(CCCN2CCN(c3cccc(Cl)c3)CC2)c(=O)n1CC [etoperidone] | -0.624% |
